Data published in the supplement of paper PMC6078165.
Values are relative to the signal before dosing, not to a vehicle control; the signal also falls without drug.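 Fibroblast labels denote human fibroblasts, mainly primary ones from uterus (C12385, HUF), lung (H6013), bone (Hs27A), adrenal (HADF) and skin (WS1), plus mammary HMF and breast cancer-associated Hs343T. Cancer cells are basal-like or mesenchymal-like triple-negative breast cancer lines. A hit is a response shift exceeding 3x replicate standard deviation. The tissue of the other fibroblasts is not given here.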

System: MDAMB231
Assay: relative JC-1 red fluorescence (viability) vs pre-drug, coculture with fibroblast (fraction); higher = more viable cancer cells
Method: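 JC-1 labelled TNBC cells cocultured 1:1 (1,500 cells each) with CellTrace Violet stained primary or stromal fibroblasts in 384-well plates in FluoroBrite medium, treated with one of 42 anticancer drugs at 0.1, 1, 10 or 100 uM. JC-1 red fluorescence (mitochondrial integrity in cancer cells only) was read by plate reader every 8 h for 72 h. Values are normalised to each well's pre-drug value. The stock of one drug was tenfold lower, so its dose labels may be too high.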

O=C(CCCCCCC(=O)Nc1ccccc1)NO [Vorinostat]
relative JC-1 red fluorescence
Settings	8 h	16 h	24 h	32 h	40 h	48 h	56 h	64 h	72 h
0.1 µM, coculture fibroblast: C12385	0.76907	0.7115	0.624	0.607	0.55	0.526	0.487	0.483	0.467
0.1 µM, coculture fibroblast: H6013	0.951	0.907	0.886	0.794	0.85	0.814	0.811	0.787	0.761
0.1 µM, coculture fibroblast: H6019	0.734	0.6825	0.586	0.571	0.5193	0.487	0.434	0.406	0.3746
0.1 µM, coculture fibroblast: H6076	0.854	0.767	0.703	0.666	0.634	0.6	0.574	0.557	0.543
0.1 µM, coculture fibroblast: H6231	0.909	0.8	0.723	0.665	0.612	0.571	0.528	0.50972	0.487
0.1 µM, coculture fibroblast: HADF	0.867	0.808	0.758	0.723	0.674	0.622	0.6119	0.5884	0.542
0.1 µM, coculture fibroblast: HCFa	0.858	0.803	0.754	0.711	0.664	0.606	0.588	0.553	0.504
0.1 µM, coculture fibroblast: HCPF	0.951	0.842	0.761	0.723	0.668	0.624	0.579	0.536	0.511
0.1 µM, coculture fibroblast: HHSteC	0.8815	0.846	0.793	0.732	0.68596	0.6457	0.606	0.58085	0.5426
0.1 µM, coculture fibroblast: HMF	0.855	0.751	0.686	0.6411	0.593	0.551	0.513	0.495	0.476
0.1 µM, coculture fibroblast: HPFa	0.9439	0.8948	0.838	0.788	0.758	0.715	0.664	0.641	0.589
0.1 µM, coculture fibroblast: HUF	0.841	0.681	0.694	0.58	0.516	0.506	0.459	0.45	0.436
0.1 µM, coculture fibroblast: Hs5	0.853	0.781	0.717	0.669	0.614	0.565	0.521	0.486	0.45179
0.1 µM, coculture fibroblast: Hs27A	0.8714	0.8103	0.7687	0.747	0.689	0.626	0.626	0.599	0.554
0.1 µM, coculture fibroblast: Hs343T	0.8694	0.751	0.6698	0.626	0.564	0.509	0.452	0.428	0.401
0.1 µM, coculture fibroblast: WS1	0.725	0.68	0.591	0.548	0.501	0.472	0.427	0.415	0.387
1 µM, coculture fibroblast: C12385	0.742	0.717	0.634	0.627	0.585	0.5724	0.545	0.5439	0.533
1 µM, coculture fibroblast: H6013	0.8782	0.8189	0.761	0.7368	0.705	0.698	0.695	0.679	0.659
1 µM, coculture fibroblast: H6019	0.733	0.656	0.603	0.57	0.539	0.538	0.498	0.505	0.486
1 µM, coculture fibroblast: H6076	0.935	0.87	0.797	0.789	0.771	0.752	0.75	0.76	0.77
1 µM, coculture fibroblast: H6231	0.8969	0.8143	0.76	0.736	0.686	0.66	0.627	0.612	0.596
1 µM, coculture fibroblast: HADF	0.89	0.854	0.846	0.848	0.838	0.817	0.706	0.752	0.762
1 µM, coculture fibroblast: HCFa	0.8697	0.79562	0.771	0.7337	0.6918	0.653	0.632	0.6067	0.586
1 µM, coculture fibroblast: HCPF	0.905	0.798	0.721	0.695	0.641	0.603	0.572	0.544	0.5218
1 µM, coculture fibroblast: HHSteC	0.8707	0.812	0.769	0.745	0.712	0.699	0.666	0.654	0.624
1 µM, coculture fibroblast: HMF	0.9	0.742	0.7306	0.839	0.817	0.792	0.77	0.757	0.751
1 µM, coculture fibroblast: HPFa	0.919	0.886	0.8065	0.7547	0.725	0.696	0.658	0.64082	0.6092
1 µM, coculture fibroblast: HUF	0.8348	0.732	0.73025	0.6435	0.595	0.591	0.549	0.548	0.526
1 µM, coculture fibroblast: Hs5	0.876	0.795	0.731	0.699	0.672	0.638	0.606	0.59	0.569
1 µM, coculture fibroblast: Hs27A	0.865	0.7983	0.7567	0.74666	0.7044	0.63	0.6531	0.6397	0.6077
1 µM, coculture fibroblast: Hs343T	0.902	0.808	0.71	0.686	0.646	0.611	0.574	0.565	0.551
1 µM, coculture fibroblast: WS1	0.749	0.708	0.606	0.582	0.559	0.545	0.513	0.51	0.492
10 µM, coculture fibroblast: C12385	0.7646	0.718	0.611	0.635	0.562	0.525	0.481	0.469	0.459
10 µM, coculture fibroblast: H6013	0.8671	0.7941	0.75	0.702	0.628	0.61	0.591	0.578	0.55
10 µM, coculture fibroblast: H6019	0.735	0.655	0.639	0.594	0.5792	0.5991	0.598	0.6462	0.6542
10 µM, coculture fibroblast: H6076	0.897	0.806	0.766	0.743	0.708	0.682	0.664	0.653	0.649
10 µM, coculture fibroblast: H6231	0.9068	0.81	0.745	0.701	0.649	0.617	0.589	0.582	0.562
10 µM, coculture fibroblast: HADF	0.889	0.83	0.782	0.726	0.664	0.611	0.585	0.56	0.505
10 µM, coculture fibroblast: HCFa	0.865	0.7897	0.734	0.663	0.572	0.511	0.464	0.432	0.396
10 µM, coculture fibroblast: HCPF	0.8703	0.753	0.6904	0.658	0.6078	0.5753	0.525	0.502	0.489
10 µM, coculture fibroblast: HHSteC	0.8709	0.809	0.753	0.696	0.634	0.602	0.554	0.543	0.503
10 µM, coculture fibroblast: HMF	0.871	0.75	0.689	0.651	0.599	0.556	0.512	0.498	0.48
10 µM, coculture fibroblast: HPFa	0.9351	0.8633	0.81372	0.75	0.707	0.6702	0.6273	0.61238	0.584
10 µM, coculture fibroblast: HUF	0.82	0.671	0.6884	0.58	0.535	0.5302	0.5073	0.5196	0.5152
10 µM, coculture fibroblast: Hs5	0.878	0.803	0.75	0.714	0.676	0.621	0.581	0.552	0.545
10 µM, coculture fibroblast: Hs27A	0.8912	0.8152	0.784	0.766	0.71	0.651	0.6725	0.661	0.6234
10 µM, coculture fibroblast: Hs343T	0.916	0.806	0.734	0.692	0.644	0.604	0.547	0.517	0.472
10 µM, coculture fibroblast: WS1	0.7412	0.666	0.571	0.535	0.471	0.435	0.392	0.383	0.362
100 µM, coculture fibroblast: C12385	0.75958	0.725	0.651	0.615	0.554	0.551	0.513	0.505	0.487
100 µM, coculture fibroblast: H6013	0.894	0.806	0.739	0.659	0.553	0.52	0.475	0.456	0.4202
100 µM, coculture fibroblast: H6019	0.809	0.733	0.602	0.54	0.494	0.495	0.46	0.488	0.48
100 µM, coculture fibroblast: H6076	0.885	0.782	0.693	0.628	0.561	0.519	0.509	0.526	0.533
100 µM, coculture fibroblast: H6231	0.903	0.83	0.777	0.731	0.663	0.635	0.584	0.57	0.535
100 µM, coculture fibroblast: HADF	0.8737	0.81	0.764	0.678	0.616	0.597	0.553	0.535	0.484
100 µM, coculture fibroblast: HCFa	0.905	0.817	0.761	0.668	0.58	0.533	0.4917	0.47	0.427
100 µM, coculture fibroblast: HCPF	0.882	0.778	0.693	0.641	0.549	0.497	0.442	0.411	0.385
100 µM, coculture fibroblast: HHSteC	0.921	0.879	0.836	0.764	0.71	0.682	0.638	0.595	0.555
100 µM, coculture fibroblast: HMF	0.879	0.776	0.695	0.644	0.575	0.534	0.473	0.457	0.436
100 µM, coculture fibroblast: HPFa	0.94	0.88	0.802	0.71	0.654	0.602	0.54	0.515	0.467
100 µM, coculture fibroblast: HUF	0.8211	0.727	0.7043	0.6	0.551	0.544	0.517	0.53	0.527
100 µM, coculture fibroblast: Hs5	0.8632	0.77736	0.7351	0.682	0.625	0.559	0.544	0.541	0.546
100 µM, coculture fibroblast: Hs27A	0.8713	0.792	0.747	0.691	0.624	0.583	0.587	0.566	0.522
100 µM, coculture fibroblast: Hs343T	0.887	0.763	0.701	0.658	0.58	0.516	0.447	0.423	0.39
100 µM, coculture fibroblast: WS1	0.739	0.666	0.569	0.498	0.436	0.408	0.361	0.358	0.336
